Data as given in PubChem BioAssay AID1259424 (University of Nebraska Medical Center, 2018).

Purpose: 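Seek colon cancer survival genes behaving like KSR1, using a six-gene signature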 (primary screen)
Cell system: human HCT116 colon cancer cells
Reagent: siRNA pool against human genes, 50 nM
Read-out: 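Six signature mRNAs by branched-DNA multiplex assay, scaled to two housekeeping genes and non-targeting median, log2; matched to mean KSR1 knockdown profile by Pearson correlation and euclidean distance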
Scale: mean correlation with KSR1 profile: higher = expression change more like KSR1 knockdown
This is an unselected part of about 14,000 deposited reagents. 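Higher correlation or smaller distance means closer resemblance to KSR1 loss; control wells, including KSR1 knockdowns, recur on many plates.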 Not all columns of the deposit are shown. The record does not give: the time to read-out.

Gene	mean correlation with KSR1 profile
NUDT15 (GeneID 55270)	-0.288
XPOT (GeneID 11260)	-0.612
PLEKHA8 (GeneID 84725)	-0.0631
PITX3 (GeneID 5309)	0.218
IGFALS (GeneID 3483)	0.488
DTX1 (GeneID 1840)	0.691
RPA3 (GeneID 6119)	-0.0493
TBC1D17 (GeneID 79735)	-0.264
APOF (GeneID 319)	0.329
EFHD1 (GeneID 80303)	0.643
BAG5 (GeneID 9529)	-0.0353
PHB1 (GeneID 5245)	0.165
ZBTB43 (GeneID 23099)	-0.567
AFP (GeneID 174)	-0.0428
GABRE (GeneID 2564)	0.246
ZBTB33 (GeneID 10009)	-0.146
HUS1B (GeneID 135458)	-0.135
DMRT2 (GeneID 10655)	-0.826
CNOT7 (GeneID 29883)	-0.185
DSE (GeneID 29940)	-0.338
